# Experimental data as given in publication PMC7205469.
# Sequences of proteins named here, by UniProt entry; tags and fusion partners are left off.
# UniProt Q9Z0E3: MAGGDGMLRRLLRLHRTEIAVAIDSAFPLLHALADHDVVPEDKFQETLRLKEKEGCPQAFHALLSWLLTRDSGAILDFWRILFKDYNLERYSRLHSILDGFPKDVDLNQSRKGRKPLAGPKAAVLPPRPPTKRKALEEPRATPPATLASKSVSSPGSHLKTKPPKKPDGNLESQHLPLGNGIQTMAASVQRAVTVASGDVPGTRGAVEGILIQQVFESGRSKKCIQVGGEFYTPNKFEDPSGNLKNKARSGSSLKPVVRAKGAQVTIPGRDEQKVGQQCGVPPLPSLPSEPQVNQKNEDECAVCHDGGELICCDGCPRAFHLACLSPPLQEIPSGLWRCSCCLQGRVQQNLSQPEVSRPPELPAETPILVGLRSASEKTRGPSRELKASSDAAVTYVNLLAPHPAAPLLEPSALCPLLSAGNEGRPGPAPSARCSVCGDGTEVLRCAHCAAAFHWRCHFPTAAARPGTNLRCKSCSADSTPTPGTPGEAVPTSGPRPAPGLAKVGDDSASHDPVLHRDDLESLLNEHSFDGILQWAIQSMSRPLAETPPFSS
# No constants are given. Whether binding was seen depends on the method and setting. In cells and extracts the contact can be indirect.
# T1: endogenous CLP1 (human (endogenous in HEK293)) (UniProt Q92989)
# T1 sequence: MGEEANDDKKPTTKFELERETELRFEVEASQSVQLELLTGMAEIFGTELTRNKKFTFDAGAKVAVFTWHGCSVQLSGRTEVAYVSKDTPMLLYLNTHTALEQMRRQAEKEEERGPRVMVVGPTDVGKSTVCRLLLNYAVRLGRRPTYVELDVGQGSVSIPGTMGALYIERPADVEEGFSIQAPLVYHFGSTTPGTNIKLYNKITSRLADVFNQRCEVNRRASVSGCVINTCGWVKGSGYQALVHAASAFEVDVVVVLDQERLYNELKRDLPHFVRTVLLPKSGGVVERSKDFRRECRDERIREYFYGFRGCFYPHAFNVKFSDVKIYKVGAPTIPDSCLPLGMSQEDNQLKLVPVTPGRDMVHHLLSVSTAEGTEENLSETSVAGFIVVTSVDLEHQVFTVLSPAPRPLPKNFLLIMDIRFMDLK
# B1: endogenous CLP1 (protein, UniProt Q92989 1-425)
# chain: T1 sequence
# How the values were obtained:
# [1] = target: T1, endogenous CLP1 (human (endogenous in HEK293)); experiment: co-IP; nuclear proteins of Aire-transfected HEK293 cells (Universal Magnetic Co-IP Kit); incubated with anti-CLP1 or Flag-tag M2 antibody for 4 hr, then Protein-G magnetic beads for 1 hr at 4°C; four washes; western blot
# Flag-tagged Aire (mouse) = Flag-tagged Aire (mouse) (UniProt Q9Z0E3); experiment: as above
Molecule,binding [1],binding (Flag-tagged Aire (mouse))
Flag-tagged Aire (from UniProt Q9Z0E3 1-552),no binding,
B1,,no binding
